Data on 39 molecules can be found in PubChem BioAssay AID2685 (National Center for Advancing Translational Sciences (NCATS), 2010).

This is one part of the list. Further columns of the screen follow, without active or inactive calls. The list favours compounds with an active or inconclusive main result. Potencies come from curve fits of mixed quality, noted in brackets.

The nature of the assay: qHTS Assay for Lipid Storage Modulators in Drosophila S3 Cells.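 On cell number change: cells counted by Cell Tracker Red CMTPX staining in the red channel.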 To be noted: BODIPY lipid droplet fluorescence, 18-24 h; for cell number change: measured here: cell count max response, cells fed with added oleic acid. The gist of the method: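 Drosophila S3 cells loaded with oleic acid (400 uM, as added) and compounds at several concentrations; lipid droplets imaged by 488-nm laser-scanning cytometry, 500–530 nm intensity and object ratio to cell channel. Percent activity normalized to 20 uM Triacsin C.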
On the technique in general: In qHTS, concentration-response curves come from the screen itself.

Setting [1] is: measured here: lipid fluorescence (Fed channel) AC50, cells fed with added oleic acid.
The mark [2] stands for this setting: measured here: cell number channel AC50, cells fed with added oleic acid.

Regarding `O=C(NCCC1=CCCCC1)c1ccc2c(=O)n3c(nc2c1)CCCCC3`, under setting [1], the AC50 was 0.92 µM [falling, full curve]. For `Cc1nc2ccccc2c(=O)n1Nc1cccc(Cl)c1`, the cell number change is 23.8%. In addition, under setting [1], the AC50 was 0.058 µM [rising, full curve, poor fit]. As to `COc1cccc(NC(=O)c2cccc(C(=O)Nc3cccc(OC)c3)n2)c1`, the cell number change was -23.3%. Besides, the AC50 under setting [1] was 7.31 µM [falling, partial curve]. On to `O=C(CN1CCCN(S(=O)(=O)c2ccc(Br)s2)CC1)Nc1ccc(Cl)cc1`, for which the cell number change turned out to be 86.8%. Moreover, the AC50 under setting [2] was 20.6 µM [rising, single point]. Regarding `Cc1ccc2[nH]c(=O)c(COC(=O)c3ccccn3)cc2c1`, the cell number change was -15%. Besides, under setting [1], the AC50 was 23.1 µM [rising, single point]. Take `O=C(CSCc1cnn(-c2ccccc2)c1-n1cccc1)NCC1CCCO1` (configuration not stated): the cell number change worked out at 10%. In addition, the AC50 under setting [1] is 0.00411 µM [rising, full curve, poor fit]. Take `COc1ccc2[nH]cc(C(=O)C(=O)N3CCCCC3)c2c1`: the cell number change was found to be 15.1%. In the case of `CCC1CCCCN1c1ccc([N+](=O)[O-])cc1/C=N/NC(=O)Cn1c2ccccc2c(=O)c2ccccc21` (configuration not stated), the cell number change amounted to 49.9%. Moreover, the concentration at half-maximal activity (AC50) under setting [2] was 25.9 µM [rising, single point]. Regarding `Cc1ccccc1NC(=O)CSc1ccncc1`, the cell number change is -54.2%. The AC50 under setting [2] is 5.8 µM [falling, full curve]. Also, the AC50 under setting [1] is 5.17 µM [falling, full curve]. Turning to `C=CCN(C(=O)c1csnn1)C(C(=O)NC1CCCC1)c1ccc(OC)cc1` (configuration not stated), the cell number change is -2.56%. Besides, the AC50 under setting [1] is 29.1 µM [rising, single point]. Take `CCc1ccc(NC(=O)CN(c2cccc(C)c2)S(C)(=O)=O)cc1`: the AC50 reads like this: under setting [2], 6.51 µM [rising, single point]; under setting [1], 13 µM [rising, partial curve]. With `COc1ccc(CCN2CC(C(=O)OCC(=O)Nc3c(C)nn(-c4ccccc4)c3C)CC2=O)cc1OC` (configuration not stated), the cell number change came to 2.81%. In the case of `Cc1ccc(S(=O)(=O)NCC(=O)N2CCOCCOCCOCCOCC2)cc1`, the cell number change is 25.7%. Besides, under setting [1], the AC50 is 0.116 µM [rising, full curve, poor fit]. For `Brc1ccc(-c2nnc3ccc(Nc4ccccc4)nn23)cc1`, the cell number change came out at 14.9%. In addition, the AC50 under setting [1] was 0.259 µM [rising, full curve, poor fit].

For the molecule `c1ccc2c(c1)OCCOCCOCCO2`, under setting [1], the AC50 is 6.51 µM [rising, single point]. Regarding `O=C(Nc1ccc(-c2cn3ccccc3n2)cc1)c1ccc(Cl)cc1`, the cell number change was -22.4%. For the same molecule, under setting [1], the AC50 was 29.1 µM [falling, single point]. In the case of `COC(=O)c1nc(N)sc1-c1ccccc1`, the AC50 reads like this: under setting [2], 0.58 µM [rising, partial curve]; under setting [1], 0.651 µM [rising, partial curve]. `C=CCSc1nc(C)c(CC(=O)OCC(C)C)c(=O)[nH]1`: the cell number change was -31.4%. Under setting [2], the AC50 is 32.6 µM [falling, single point]. Further, under setting [1], the AC50 was 1.64 µM [falling, partial curve].

For the molecule `Cc1ncc([N+](=O)[O-])n1CC(=O)Nc1ccc(OC(F)(F)Cl)cc1`, the cell number change is -1.39%.

On to `CCOc1cc(S(=O)(=O)n2c(C)nc3ccccc32)ccc1F`, for which the cell number change is -16.6%. Also, the AC50 under setting [1] was 5.17 µM [falling, full curve]. For the molecule `Nc1nc2nc(SCC(=O)N3CCCc4ccccc43)[nH]c2c(=O)[nH]1`, the cell number change was 9.43%. As to `O=C(NC1=NCCS1)C1Cc2ccccc2CN1C(=O)c1ccccc1` (configuration not stated), the cell number change was -32.1%. Further, the AC50 under setting [2] was 0.103 µM [falling, full curve, poor fit]. In addition, under setting [1], the AC50 is 0.259 µM [rising, full curve, poor fit]. Take `CCc1nnc2c(N(C)S(=O)(=O)c3ccc(C)cc3)nc3ccccc3n12`: the cell number change was -7.25%.

Take `O=C(O)c1cc(NS(=O)(=O)c2ccc(NCc3ccccc3)c([N+](=O)[O-])c2)cc(C(=O)O)c1`: the cell number change was 12.6%. Moreover, the AC50 under setting [1] was 18.4 µM [falling, single point]. Turning to `Cc1ccccc1CN(C)C(=O)[C@H](Cc1ccccc1)NC(=O)c1ccco1`, the cell number change is -13.5%. Also, the concentration at half-maximal activity (AC50) under setting [1] was 0.517 µM [falling, full curve]. As for `Cc1ccc(-c2nnn(CC(=O)N3CCC(C)CC3)n2)o1`, the AC50 was 6.51 µM [falling, single point] under setting [2] and 6.51 µM [falling, single point] under setting [1]. On to `CSc1nc2c(c(=O)[nH]1)C(c1ccc(C(F)(F)F)cc1)CC(=O)N2` (configuration not stated), for which the cell number change was -8.8%. In addition, the AC50 under setting [2] is 0.731 µM [falling, single point]. Under setting [1], the AC50 is 6.51 µM [falling, single point]. As to `O=C(Oc1ccc(Br)cc1)C1CCN(C2=NS(=O)(=O)c3ccccc32)CC1`, the cell number change is -7.9%. On to `Nc1c(Cl)cc(C2=NCCn3nc4cc([N+](=O)[O-])ccc4c32)cc1Cl`, for which the AC50 under setting [1] was 18.4 µM [falling, partial curve].

Consider `Cc1cccc(OCC(=O)Nc2ccc3c(c2)nc(CCN2CCN(c4ccccn4)CC2)n3C)c1`, for which the cell number change stood at 14.9%. For the same molecule, the AC50 under setting [2] is 2.06 µM [rising, partial curve]. The AC50 under setting [1] is 1.46 µM [rising, full curve]. On to `O=C(COc1ccc(F)cc1F)NNC(=O)Nc1cccc([N+](=O)[O-])c1`, for which the cell number change is -19.3%. The AC50 under setting [1] is 29.1 µM [falling, single point]. As to `COCc1ccc(C(=O)N2CCCC(N3CCN(c4ccc(F)cc4)CC3)C2)o1` (configuration not stated), the cell number change came out at 22%. Besides, under setting [1], the AC50 was 16.4 µM [rising, single point]. In the case of `Cc1ccc(S(=O)(=O)N(CC(=O)O)Cc2ccccc2)cc1`, the cell number change stood at 16.5%. Also, under setting [1], the AC50 was 6.51 µM [falling, single point]. For the molecule `Cc1ccc(NC(=O)CN(CCc2ccccc2)S(C)(=O)=O)cc1`, the cell number change amounted to 8.77%. `Cn1c(=O)c2c(SCC(=O)c3ccccc3)nc(C3CC3)nc2n(C)c1=O`: the cell number change was -1.29%. For the same molecule, the AC50 under setting [1] was 0.461 µM [rising, full curve, poor fit]. With `COc1ccccc1N1CCN(C(=O)c2cc(-c3ccccc3O)on2)CC1`, the cell number change is 16.2%. Besides, under setting [1], the AC50 was 25.9 µM [rising, single point]. With `Cc1ccc(NC(=O)C2CCN(S(=O)(=O)c3ccc4c(c3)NC(=O)CO4)CC2)cc1C`, under setting [1], the AC50 was 6.51 µM [rising, single point]. As to `CCOC(=O)c1c(NC(=S)N2CCN(C)CC2)sc(C)c1-c1ccccc1`, the cell number change is -35.6%. Further, under setting [1], the AC50 is 2.91 µM [rising, partial curve].

With `CC1CCN(C(=O)CCNS(=O)(=O)c2ccc(Br)cc2)CC1`, the cell number change was -8.58%. The AC50 under setting [1] is 2.06 µM [falling, partial curve, poor fit].

As usually defined, the AC50 is the midpoint of the concentration-response curve, whichever way the signal moves. The low end stands for activity at low concentration, the high end for activity only at high concentration.
